Results from article PMC11048174.
These are yes or no findings as the source states them, for the method shown.

The chains behind the UniProt entries cited, without tags or fusion partners. Residues count along the entry.
UniProt P02701, residues 25-152: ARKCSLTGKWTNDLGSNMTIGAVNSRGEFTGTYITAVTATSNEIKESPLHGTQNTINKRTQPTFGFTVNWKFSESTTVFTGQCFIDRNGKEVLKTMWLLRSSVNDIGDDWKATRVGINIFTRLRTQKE

Experiments:
[1] = molecular target: Avidin (obtained from egg white) (UniProt P02701); assay: electrochemical impedance spectroscopy; MWCNT-Av on glassy carbon electrode, incubated with bLOx or LOx; charge transfer resistance of hydroquinone/benzoquinone at 0.050 V, 0.050 M phosphate buffer pH 7.40; both purified
[2] = molecular target: Avidin (obtained from egg white) (UniProt P02701); assay: SPR; MWCNT-Av deposited on a gold disk; 0.50 mg mL^-1 bLOx or LOx injected manually, batch conditions, 25 °C; amount from the change of the resonance angle after washing with phosphate buffer; both purified

B1: non-biotinylated lactate oxidase (enzyme, UniProt Q44467 1-374)
chain: MNNNDIEYNAPSEIKYIDVVNTYDLEEEASKVVPHGGFNYIAGASGDEWTKRANDRAWKHKLLYPRLAQDVEAPDTSTEILGHKIKAPFIMAPIAAHGLAHTTKEAGTARAVSEFGTIMSISAYSGATFEEISEGLNGGPRWFQIYMAKDDQQNRDILDEAKSDGATAIILTADSTVSGNRDRDVKNKFVYPFGMPIVQRYLRGTAEGMSLNNIYGASKQKISPRDIEEIAGHSGLPVFVKGIQHPEDADMAIKRGASGIWVSNHGARQLYEAPGSFDTLPAIAERVNKRVPIVFDSGVRRGEHVAKALASGADVVALGRPVLFGLALGGWQGAYSVLDYFQKDLTRVMQLTGSQNVEDLKGLDLFDNPYGYEY
For B1, the binding [1] was “no binding” and the binding [2] was “no binding (tested: 0.50 mg mL^-1)”.
